Test results from article PMC6370856, “Peptidyl prolyl cis/trans isomerase activity on the cell surface correlates with extracellular matrix development” (Communications Biology, 2019).

System: collagen hydrogel (Type I, rat-tail)
Assay: Step-strain rheological measurement, self-healing of collagen hydrogel
Details: 9 micromolar CypA
Method: Another important feature of the dynamic ECMs is their self-healing property, which can be tested using a step-strain rheological measurement. A strong strain is applied to liquify the materials, and the recovery of storage modulus is followed (self-healing) (Fig. 1b). Collagen hydrogel can only partially recover its storage modulus after the first cycle. The rate and extent of recovery were unchanged over the following cycles.
To minimize sample evaporation at 37 °C, a tissue paper wet in HEPEs buffer (10 mM, pH 7.8) was placed inside the H-PTD chamber to increase the humidity. […] The cone and plate were treated with plasma for 5 min to increase the hydrophilicity of the metal surface.

CypA: recombinant cyclophilin A, a PPIase, expressed in E. coli
Storage Modulus, Mean (Time 72.33 min): 5.731 Pa | Storage Modulus, Mean (Time 72.83 min): 5.662 Pa | Storage Modulus, Mean (Time 73.33 min): 5.397 Pa | Storage Modulus, Mean (Time 73.83 min): 5.502 Pa | Storage Modulus, Mean (Time 74.33 min): 6.029 Pa | Storage Modulus, Mean (Time 74.83 min): 5.5133 Pa | Storage Modulus, Mean (Time 75.33 min): 5.709 Pa | Storage Modulus, Mean (Time 75.83 min): 5.4702 Pa | Storage Modulus, Mean (Time 76.33 min): 5.469 Pa | Storage Modulus, Mean (Time 76.83 min): 5.814 Pa | Storage Modulus, Mean (Time 77.33 min): 5.604 Pa | Storage Modulus, Mean (Time 77.83 min): 6.148 Pa | Storage Modulus, Mean (Time 78.33 min): 6.016 Pa | Storage Modulus, Mean (Time 78.83 min): 5.471 Pa | Storage Modulus, Mean (Time 79.33 min): 5.868 Pa | Storage Modulus, Mean (Time 79.83 min): 5.184 Pa | Storage Modulus, Mean (Time 80.33 min): 5.805 Pa | Storage Modulus, Mean (Time 80.83 min): 5.927 Pa | Storage Modulus, Mean (Time 81.33 min): 5.574 Pa | Storage Modulus, Mean (Time 81.83 min): 5.824 Pa | Storage Modulus, Mean (Time 82.33 min): 5.448 Pa | Storage Modulus, Mean (Time 82.83 min): 5.786 Pa | Storage Modulus, Mean (Time 83.33 min): 6.517 Pa | Storage Modulus, Mean (Time 83.83 min): 6.291 Pa | Storage Modulus, Mean (Time 84.33 min): 6.291 Pa | Storage Modulus, Mean (Time 84.83 min): 6.753 Pa | Storage Modulus, Mean (Time 85.33 min): 6.207 Pa | Storage Modulus, Mean (Time 85.83 min): 6.301 Pa | Storage Modulus, Mean (Time 86.33 min): 5.551 Pa | Storage Modulus, Mean (Time 86.83 min): 5.784 Pa | Storage Modulus, Mean (Time 87.33 min): 6.331 Pa | Storage Modulus, Mean (Time 87.83 min): 5.95 Pa | Storage Modulus, Mean (Time 88.33 min): 6.316 Pa | Storage Modulus, Mean (Time 88.83 min): 6.454 Pa | Storage Modulus, Mean (Time 89.33 min): 6.511 Pa | Storage Modulus, Mean (Time 89.83 min): 6.248 Pa | Storage Modulus, Mean (Time 90.33 min): 6.728 Pa | Storage Modulus, Mean (Time 90.83 min): 6.803 Pa | Storage Modulus, Mean (Time 91.33 min): 6.7746 Pa | Storage Modulus, Mean (Time 91.83 min): 6.465 Pa | Storage Modulus, Mean (Time 92.33 min): 6.684 Pa | Storage Modulus, Mean (Time 92.83 min): 6.241 Pa | Storage Modulus, Mean (Time 93.33 min): 6.678 Pa | Storage Modulus, Mean (Time 93.5 min): 1.043 Pa | Storage Modulus, Mean (Time 93.67 min): 0.9944 Pa | Storage Modulus, Mean (Time 93.83 min): 0.9371 Pa | Storage Modulus, Mean (Time 94 min): 0.9099 Pa | Storage Modulus, Mean (Time 94.17 min): 0.888 Pa | Storage Modulus, Mean (Time 94.33 min): 0.869 Pa | Storage Modulus, Mean (Time 94.5 min): 0.8565 Pa | Storage Modulus, Mean (Time 94.67 min): 0.8445 Pa | Storage Modulus, Mean (Time 94.83 min): 0.8347 Pa | Storage Modulus, Mean (Time 95 min): 0.8256 Pa | Storage Modulus, Mean (Time 95.5 min): 3.371 Pa | Storage Modulus, Mean (Time 96 min): 4.81 Pa | Storage Modulus, Mean (Time 96.5 min): 4.105 Pa | Storage Modulus, Mean (Time 97 min): 4.77 Pa | Storage Modulus, Mean (Time 97.5 min): 4.5639 Pa | Storage Modulus, Mean (Time 98 min): 4.981 Pa | Storage Modulus, Mean (Time 98.5 min): 4.9588 Pa | Storage Modulus, Mean (Time 99 min): 4.955 Pa | Storage Modulus, Mean (Time 100 min): 5.139 Pa | Storage Modulus, Mean (Time 100.5 min): 4.946 Pa | Storage Modulus, Mean (Time 101.5 min): 5.717 Pa | Storage Modulus, Mean (Time 102.5 min): 5.485 Pa | Storage Modulus, Mean (Time 109.5 min): 4.645 Pa | Storage Modulus, Mean (Time 110 min): 6.2533 Pa | Storage Modulus, Mean (Time 110.5 min): 6.02 Pa | Storage Modulus, Mean (Time 111.5 min): 6.493 Pa | Storage Modulus, Mean (Time 112.5 min): 6.728 Pa | Storage Modulus, Mean (Time 113.5 min): 7.172 Pa | Storage Modulus, Mean (Time 114 min): 6.039 Pa | Storage Modulus, Mean (Time 114.5 min): 6.304 Pa | Storage Modulus, Mean (Time 118.5 min): 6.899 Pa
